From publication PMC10127613 (mBio, 2023)
A negative result means that nothing was seen under these conditions. Tags and fusion partners may be left off the protein sequences shown. A weaker result is weaker than the reference pair of the same experiment.

Target: T1, Clr (Sinorhizobium meliloti) (UniProt Q92SD2)
T1 sequence (looked up): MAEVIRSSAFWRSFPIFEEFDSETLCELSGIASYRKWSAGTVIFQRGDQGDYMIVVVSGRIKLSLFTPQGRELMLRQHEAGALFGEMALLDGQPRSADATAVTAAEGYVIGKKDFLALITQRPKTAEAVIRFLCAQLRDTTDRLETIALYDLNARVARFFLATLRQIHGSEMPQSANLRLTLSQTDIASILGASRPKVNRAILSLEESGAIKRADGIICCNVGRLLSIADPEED
Assay: EMSA
Details: 1 mM cAMP, EMSA: 2 mM HEPES pH 7.0, 30 mM NaCl, 50 mM KCl, 850 ng salmon sperm DNA, 1 ug BSA, 20 ng Cy3-DNA, 3 ug Clr in 10 uL, room temperature, recombinant protein, residues 1-234, protein details: C-terminal His6 (pET36b, NdeI/XhoI), label: 5'-Cy3 on reverse strand

Row | Sequence | binding result
1 | AGCGGATAACAATTTCACACAGGAAACAGCATATGACCATGATTACGCCAAGCTCGAAATTAACCCTCACTAAAGGGAACAAAAGCTGGAGCTCTTAAGCTTTCGACTATTGCCCTGCCGATGCGTCGGGCGCCGCCGGTAACGAGCGCCGCCTTGAGTGTCCTTTTCAACGTTTCGTCCCGTTCTTCGAATCCTGATGCCGAGTGGCAGAAGATATAGGCTGGAAACGCTCGCCGGAACTCTCGCCGGACGATTCATTTCTGAAAAATTAACGCGGAAGCCGTAATTTGCATCAGTTTGTATTGCTATAGTATATCTTTCGTTAATATTGAATCGTGGTTAATAAAGTACCTGTGTCTGCGCTGCAACATCGCATTTCAGTCGCGTTGCCGCCACTAAAATTTCACATTTTGGCTCTTGAGATTCCTCATTTCCTGATCAATTTCGGGTCAACCGGGCGGGTTAATTGCAGATGTCCGGTGTTCCGCTGAGAAACAACTAAAACGGAACGCCGGTTCGAAAGGAGAATAGTATGCGTACGCTCACCACCTCTAGACTGCAGATGGTGAGCAAGGGCGAGGAGCTGTTCA (double strand) [ropB1 / SMc00603] | binds more weakly
2 | AGCGGATAACAATTTCACACAGGAAACAGCATATGACCATGATTACGCCAAGCTCGAAATTAACCCTCACTAAAGGGAACAAAAGCTGGAGCTCTTAAGCTTTCGCTCGGTGGCTGCAATTCGAAATTGAGTACTTGCCGATCGGCCGGTCTCGTGCAAGGATCACCTCATCCGCAATTCAAATCAGAGGAGGCGTAAGATGGATTCCAATCTCGTGTTTGTGCGCCTCTGCGGCGGAACGGCTATCACGCCTTCGATGCGTAGCGCATCTCGTTTCAGCCGCTACTGATCCAAGGCTCACAAGCCCGCAATTCCGCCATTTGGCGATCCCCTTTTTACCTGACGTGACCGGATGACGGGGCGATTGTTCGCATTTTTGCGTTCCGCATCCGCACGTCTCTGATCCTCGAAAGGACCTGGCTGCGTCACTGCGCCGGGACGGACAGTCATGCGTGAACCACAAGCTATCTAGACTGCAGATGGTGAGCAAGGGCGAGGAGCTGTTCA (double strand) [SMb20647] | binds more weakly
3 | AGCGGATAACAATTTCACACAGGAAACAGCATATGACCATGATTACGCCAAGCTCGAAATTAACCCTCACTAAAGGGAACAAAAGCTGGAGCTCTTAAGCTTTCGGCCACCTCTCCGTTAGCGCCTGACTAGTGTCACGGCGTTTCCAATGCAAGATTTTTTTGTCGAATTTCAGGAAATCATCCGATTTTCATCCGCTTCGGGCCGCGGCGCCCCCCGAGTCATATGAGAACTAGGACCGCATCGGGCAATCGGGAAAGGTCTTGTCCGTCGCGCATGAAACGTCACAACGCCAAGTGCACTGACTTCTTCCGGGGGAATTCTTTCTCTGCGTCGATTCCGATTCCCATCCTTATGCGATAAGTTCCGCGGGCATTTCCGAACGGAGTACGGTTTTTCAAGATGTCCGCATTCTCACGCTTCACGCTCTAGACTGCAGATGGTGAGCAAGGGCGAGGAGCTGTTCA (double strand) [hisC4] | binds more weakly
4 | AGCGGATAACAATTTCACACAGGAAACAGCATATGACCATGATTACGCCAAGCTCGAAATTAACCCTCACTAAAGGGAACAAAAGCTGGAGCTCTTAAGCTTTCGTCAGGACATAATCCTTGTCGAGAACCGCGCCGCCGATCGCCAGCCGTTCCTCGTCCCCGCCCTGCCGGCGGCGGACATTGCCGCGGATTTTCGCAGCCTTGCCCACGACCGGAGCTGCTGCCGTCGAACGGCCGCCCGATACGGTGGCAAGCAGCAGGCCGCCAAGAAAGATCCGTCTCCTCATCTCGAACTGCCGCATCGGCTTCTCCGCTGCGTTTCGCAGCGCTCCCTGTTCGGCCTCCGGCTCCTTACGAGGATAGACCGAGGCGTGCCCGATGCAAGACGCATCTTGGGGGCTGCTTCAACTCACCGTTTCATCGCCTTCACCGCTGTTTCCCGCGGAACAGATGCCGGGTCGGGGCGGCCCTAGGATGGTGTCGGTTAGAGGGAGAGCACCATGAAGAAACACGTTGGATCGAGCTCTAGACTGCAGATGGTGAGCAAGGGCGAGGAGCTGTTCA (double strand) [SMc02177 / SMc02178] | binds
5 | AGCGGATAACAATTTCACACAGGAAACAGCATATGACCATGATTACGCCAAGCTCGAAATTAACCCTCACTAAAGGGAACAAAAGCTGGAGCTCTTAAGCTTTCTACGCCGGCAACTGAGCATCTGCTTTTTTCTGGTTCGCCTGGTTGATATATTCATCTTTTGGCAACCAAACGGGCATCTAATCATTAATCTTGTAAGTGGTTCCCGCGGTAACGGCGGAGCACCAAAATGTGTTGTAGGCTGTATCCAATGTTTATCGGGCGGGCCGCATTTGTAGCCGGTTCAGTGCTATATCTCGATCATGGTGTCAGTCTTTCAGCGACCAGATGTGAGGCCGGCACCGGCATGTTTCGATGGCCGAATCGCTTCGGTTCAAGGAATATTCGGTAGTAGGGCTCGGCAGGGCTTTCTGCAGGGCCGTGTGCTAGAAGCTAATCTATTCGGCGGTGTCGGAGGTGCCGGATGCTGAACTGGACATTCACGTCTAGACTGCAGATGGTGAGCAAGGGCGAGGAGCTGTTCA (double strand) [SMc01003] | binds
6 | AGCGGATAACAATTTCACACAGGAAACAGCATATGACCATGATTACGCCAAGCTCGAAATTAACCCTCACTAAAGGGAACAAAAGCTGGAGCTCTTAAGCTTTGCACAACAGCTGCGGCGATCTTTGCACGTCTGCCGCTGTAGGCTGGTACCACTTTGCGACGCGCCCTTGCGCGTCGTTTTCATGCGTGAAGTCGCTCTGTCCCCTCTGCGGCGTTTCCTTCGACACTGCGATCCCTTTTCCTGCGCCTTTGCAGCCCCCAGACCCACAACGCGGCCGCGCGCCGTCACCTCGACCAGGCCGATGACGGACTTCCACCGAGGGCGTTGCGGACAAGCGTACTTTTCCCTTCCCGAATCCGCGCTATAGTCACTGGGGGTTTGGCCCAAGGAAATGTCGCATGACGCTCACCCTCTATCTTTCTAGACTGCAGATGGTGAGCAAGGGCGAGGAGCTGTTCA (double strand) [gst10] | no binding
7 | AGCGGATAACAATTTCACACAGGAAACAGCATATGACCATGATTACGCCAAGCTCGAAATTAACCCTCACTAAAGGGAACAAAAGCTGGAGCTCTTAAGCTTTTCTGAGAGCTCCTGGTGGTCTGCACGTTCCAGCTGATTTTCCCAGCATAGCTTCCACTGCACTTTTAAGGACATGTAAGAACTCCAGTGTGTTGTTTCTTCAAAGCACGATCGAGAGTGGTGTGTACCCGGCAAGTTACACCGGGGACGCCAACCGTAGCGCTGGACCGTTGGTCGAGCGCTTAGATGACGGCTCTAAATTCGGACCCATCCTGTACTTGTGAAACTTTTCTCGCGCCGCACCTTGATTCCATTAACTTCAGGGTTCTCTAATAGGACTCTGCAAGATTGGTAAAATTGATTGTTTGGATAACGATCATCTGCGATATGGATGCCGCACATGCGTTTTAGGGGCCTAGATCTAGACTGCAGATGGTGAGCAAGGGCGAGGAGCTGTTCA (double strand) [nodA / nodD1] | binds more weakly
8 | AGCGGATAACAATTTCACACAGGAAACAGCATATGACCATGATTACGCCAAGCTCGAAATTAACCCTCACTAAAGGGAACAAAAGCTGGAGCTCTTAAGCTTTTGCCTATTTCGTCGCACGGGCGGAGGTGACGCCTGAATCGCTCGCCGCCAACCCGGACATCCGCCTCTATCCCGGCATGCCCGCGGAAGTGCTGATCGTGCACAAATCGCGCTCGGCAATCGACTACCTCGTCGCCCCAGTCTCCGACAGTTTCAACCGGGCTTTTCGGGAGGACTGACCTGTCTAGCTCTTGATATCTCTTCTCGTCGCAAATTACTTTAAAATTTGAAGCGCTTTGCCTGCATTTCCGTCAGAATTACTCCTAAAATTATATTGTACCAATATTGGCACAGCATGGAGATATGTTTCGGGCACCCTCTTTCTATCAAAATATCGCCGTTTTATTTTATGCATCTGTGTTGCGTTCGTAATTATTGCAGTGCACACTCCGGCACGCAATCCTCGGCTCCGTGCCGATGACGCATGCATCAAACCACGAAGAGGAGAAGCAGATGGCCACTTTGGAAGGCGGCGCATACTCTAGACTGCAGATGGTGAGCAAGGGCGAGGAGCTGTTCA (double strand) [wgeA] | binds more weakly
